Results published in article PMC13144739, “Global analysis of cancer cell responses to USP9X inhibition” (The EMBO Journal, 2026).

Tests used:
Type in all cases: cell-based, human
DLD-1 cells = assay: Ubiquitinomics (K-GG peptide profiling), DLD-1; details: DLD-1, 10 µM, 30 min, log2 > 2, adjusted P < 0.05
MDA-MB-231 cells = assay: Ubiquitinomics (K-GG peptide profiling), MDA-MB-231; details: MDA-MB-231, 10 µM
[1] = system: eight cell lines (A549, DLD-1, MDA-MB-231, MiaPaca2, OVCAR8, UO-31, SK-MEL-2, HMEC-1); assay: Global proteomics across eight cell lines; details: 10 µM, 24 h

Row | SMILES | number of K-GG-modified peptides enriched (DLD-1 cells) | number of K-GG peptides with increased abundance (MDA-MB-231 cells; 30 min) | number of proteins carrying increased K-GG peptides (MDA-MB-231 cells; 30 min) | number of high-confidence USP9X substrates (increased ubiquitination and decreased protein levels) (MDA-MB-231 cells; 30 min / 6 h / 24 h) | number of proteins commonly depleted across the cell lines tested ([1]; decreased in at least four of eight cell lines) | number of proteins significantly downregulated in at least one of the cell lines ([1]; eight cell lines)
1 | O=C(C[C@@H](C(F)F)n1ccc(F)n1)N1CCC(O)(Cn2cnc3c(cnn3-c3ccc(F)cc3)c2=O)CC1 [FT671, reference compound] | 804 | – | – | – | – | –
2 | Cc1[nH]c2ccc(C(=O)N3CCN(S(=O)(=O)c4ccc5c(c4)OCCO5)CC3)cc2c1C [WEHI-092] | 420 | 1323 | 851 | 69 | 17 | 99
